Experimental data: paper doi:10.1101/2023.05.22.23289895
Results are given in words; binding and its absence hold for the method and conditions named. In cells and extracts the contact can be indirect. Some binding calls cover weakened binding; strength is not graded here. For some assays here: Sequences can lack the tags named with a protein.

By UniProt entry, the sequences of proteins in these tests, tags left out.
UniProt Q12824: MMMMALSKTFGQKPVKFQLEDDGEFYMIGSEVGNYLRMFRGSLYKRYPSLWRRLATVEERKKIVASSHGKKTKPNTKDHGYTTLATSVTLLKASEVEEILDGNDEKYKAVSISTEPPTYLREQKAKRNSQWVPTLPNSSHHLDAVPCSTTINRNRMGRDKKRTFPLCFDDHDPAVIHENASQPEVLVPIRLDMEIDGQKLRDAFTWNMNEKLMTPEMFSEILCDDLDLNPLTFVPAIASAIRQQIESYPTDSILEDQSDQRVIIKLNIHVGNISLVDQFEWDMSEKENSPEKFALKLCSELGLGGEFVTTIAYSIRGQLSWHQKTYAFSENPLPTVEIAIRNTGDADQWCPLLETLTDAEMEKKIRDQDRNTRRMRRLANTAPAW

Columns and labels:
3xHA-tagged CPSF2 = target: T1, 3xHA-tagged CPSF2 (UniProt Q9P2I0); assay: co-IP
T1 sequence: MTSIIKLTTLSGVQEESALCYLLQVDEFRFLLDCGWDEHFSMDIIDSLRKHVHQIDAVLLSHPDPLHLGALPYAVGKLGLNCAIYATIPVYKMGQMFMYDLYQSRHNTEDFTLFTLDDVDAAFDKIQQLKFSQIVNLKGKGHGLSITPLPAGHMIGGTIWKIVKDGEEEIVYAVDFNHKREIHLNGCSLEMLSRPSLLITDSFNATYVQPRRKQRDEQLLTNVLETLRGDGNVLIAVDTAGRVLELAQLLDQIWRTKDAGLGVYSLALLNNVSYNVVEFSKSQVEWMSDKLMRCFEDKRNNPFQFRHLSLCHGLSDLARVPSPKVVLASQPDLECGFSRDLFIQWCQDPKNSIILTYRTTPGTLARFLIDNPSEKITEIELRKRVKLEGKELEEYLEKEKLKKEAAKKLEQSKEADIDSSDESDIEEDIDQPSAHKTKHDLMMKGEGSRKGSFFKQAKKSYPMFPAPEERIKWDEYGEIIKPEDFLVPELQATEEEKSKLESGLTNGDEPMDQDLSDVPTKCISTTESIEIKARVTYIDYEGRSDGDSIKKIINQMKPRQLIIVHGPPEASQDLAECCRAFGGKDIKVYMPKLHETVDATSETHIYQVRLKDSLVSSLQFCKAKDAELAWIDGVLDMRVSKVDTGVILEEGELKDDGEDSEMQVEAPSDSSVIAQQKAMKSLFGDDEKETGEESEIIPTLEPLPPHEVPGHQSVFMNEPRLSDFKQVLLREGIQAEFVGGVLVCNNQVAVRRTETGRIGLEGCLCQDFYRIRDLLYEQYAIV

3xHA-tagged SMARCB1 = 3xHA-tagged SMARCB1 (UniProt Q12824); assay: co-IP

binding (3xHA-tagged CPSF2): binds
binding (3xHA-tagged SMARCB1): binds
Substance: FLAG-tagged ZFHX3 (from UniProt Q15911-1 1-3703)
